Laboratory results taken from PMC7242444.
These are yes or no findings as the source states them, for the method shown. Binding seen in cells or lysates may run through a third protein. A yes stands for co-enrichment or nearness to the bait. Other partners may have been found.

Amino acid sequences for entries named in this document (tags omitted). A change or cut given only in a name is not applied to a line headed by its entry. Residues count along the entry.
UniProt Q5VZL5: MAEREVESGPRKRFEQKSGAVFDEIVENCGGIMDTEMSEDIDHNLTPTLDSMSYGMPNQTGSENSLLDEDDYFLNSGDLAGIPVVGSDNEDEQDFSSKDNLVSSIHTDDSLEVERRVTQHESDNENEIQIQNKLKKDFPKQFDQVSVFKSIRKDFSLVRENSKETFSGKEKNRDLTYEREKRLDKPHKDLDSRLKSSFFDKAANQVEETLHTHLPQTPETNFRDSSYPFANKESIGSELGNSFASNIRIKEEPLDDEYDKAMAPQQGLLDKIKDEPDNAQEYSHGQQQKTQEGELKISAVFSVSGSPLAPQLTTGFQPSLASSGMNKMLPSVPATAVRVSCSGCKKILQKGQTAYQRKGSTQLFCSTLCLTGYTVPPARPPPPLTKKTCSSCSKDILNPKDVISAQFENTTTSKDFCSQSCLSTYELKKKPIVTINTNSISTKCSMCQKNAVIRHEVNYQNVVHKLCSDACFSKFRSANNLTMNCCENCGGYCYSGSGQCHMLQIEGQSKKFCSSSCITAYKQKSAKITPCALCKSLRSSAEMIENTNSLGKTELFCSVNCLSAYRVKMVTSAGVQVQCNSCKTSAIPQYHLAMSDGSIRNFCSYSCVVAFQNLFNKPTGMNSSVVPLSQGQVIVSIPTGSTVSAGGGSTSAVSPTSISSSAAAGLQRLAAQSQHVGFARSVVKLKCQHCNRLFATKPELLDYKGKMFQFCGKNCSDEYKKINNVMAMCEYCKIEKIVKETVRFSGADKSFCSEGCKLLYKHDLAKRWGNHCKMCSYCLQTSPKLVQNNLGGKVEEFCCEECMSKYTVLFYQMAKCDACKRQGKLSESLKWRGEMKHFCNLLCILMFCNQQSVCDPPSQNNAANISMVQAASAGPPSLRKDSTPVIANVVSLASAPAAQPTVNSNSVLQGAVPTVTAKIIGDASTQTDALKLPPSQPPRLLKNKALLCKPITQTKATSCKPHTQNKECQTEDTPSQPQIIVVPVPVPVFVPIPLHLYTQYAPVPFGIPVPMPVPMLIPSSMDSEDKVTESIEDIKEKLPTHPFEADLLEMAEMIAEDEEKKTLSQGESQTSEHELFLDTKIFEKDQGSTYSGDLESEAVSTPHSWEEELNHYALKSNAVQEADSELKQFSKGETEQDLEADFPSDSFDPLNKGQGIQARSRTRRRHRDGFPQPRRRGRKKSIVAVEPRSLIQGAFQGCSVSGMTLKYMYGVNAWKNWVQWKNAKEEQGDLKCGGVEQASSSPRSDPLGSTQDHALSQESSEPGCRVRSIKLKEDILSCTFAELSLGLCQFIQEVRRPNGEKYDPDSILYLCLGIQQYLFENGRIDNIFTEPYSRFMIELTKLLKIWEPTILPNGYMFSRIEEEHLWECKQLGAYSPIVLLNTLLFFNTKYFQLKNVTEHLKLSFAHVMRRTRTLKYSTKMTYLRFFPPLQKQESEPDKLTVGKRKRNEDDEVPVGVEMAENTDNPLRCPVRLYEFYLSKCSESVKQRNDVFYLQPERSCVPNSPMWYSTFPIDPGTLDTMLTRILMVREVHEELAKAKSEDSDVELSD
GFP-ZMYM4: residues 33-1548 of Q5VZL5
UniProt Q6MZP7: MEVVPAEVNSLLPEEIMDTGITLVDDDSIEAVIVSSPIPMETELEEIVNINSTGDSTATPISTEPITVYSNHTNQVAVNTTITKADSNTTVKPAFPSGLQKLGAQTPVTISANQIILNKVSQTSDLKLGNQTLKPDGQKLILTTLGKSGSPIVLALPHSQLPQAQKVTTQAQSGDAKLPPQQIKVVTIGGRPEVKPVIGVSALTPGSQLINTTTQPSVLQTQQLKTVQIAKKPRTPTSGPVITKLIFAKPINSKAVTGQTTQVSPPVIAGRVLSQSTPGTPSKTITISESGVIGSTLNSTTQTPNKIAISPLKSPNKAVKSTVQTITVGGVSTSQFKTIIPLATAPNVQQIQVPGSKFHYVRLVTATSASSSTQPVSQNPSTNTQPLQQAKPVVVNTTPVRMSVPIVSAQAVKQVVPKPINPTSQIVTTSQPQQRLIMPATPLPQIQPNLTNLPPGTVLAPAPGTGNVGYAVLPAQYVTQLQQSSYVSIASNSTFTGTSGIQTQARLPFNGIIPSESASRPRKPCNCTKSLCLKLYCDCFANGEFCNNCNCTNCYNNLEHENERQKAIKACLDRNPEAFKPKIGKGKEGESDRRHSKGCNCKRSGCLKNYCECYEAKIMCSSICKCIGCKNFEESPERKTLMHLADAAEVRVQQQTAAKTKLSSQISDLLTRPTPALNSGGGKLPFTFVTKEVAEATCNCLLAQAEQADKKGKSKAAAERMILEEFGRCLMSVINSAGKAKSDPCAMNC
UniProt Q9ULL5: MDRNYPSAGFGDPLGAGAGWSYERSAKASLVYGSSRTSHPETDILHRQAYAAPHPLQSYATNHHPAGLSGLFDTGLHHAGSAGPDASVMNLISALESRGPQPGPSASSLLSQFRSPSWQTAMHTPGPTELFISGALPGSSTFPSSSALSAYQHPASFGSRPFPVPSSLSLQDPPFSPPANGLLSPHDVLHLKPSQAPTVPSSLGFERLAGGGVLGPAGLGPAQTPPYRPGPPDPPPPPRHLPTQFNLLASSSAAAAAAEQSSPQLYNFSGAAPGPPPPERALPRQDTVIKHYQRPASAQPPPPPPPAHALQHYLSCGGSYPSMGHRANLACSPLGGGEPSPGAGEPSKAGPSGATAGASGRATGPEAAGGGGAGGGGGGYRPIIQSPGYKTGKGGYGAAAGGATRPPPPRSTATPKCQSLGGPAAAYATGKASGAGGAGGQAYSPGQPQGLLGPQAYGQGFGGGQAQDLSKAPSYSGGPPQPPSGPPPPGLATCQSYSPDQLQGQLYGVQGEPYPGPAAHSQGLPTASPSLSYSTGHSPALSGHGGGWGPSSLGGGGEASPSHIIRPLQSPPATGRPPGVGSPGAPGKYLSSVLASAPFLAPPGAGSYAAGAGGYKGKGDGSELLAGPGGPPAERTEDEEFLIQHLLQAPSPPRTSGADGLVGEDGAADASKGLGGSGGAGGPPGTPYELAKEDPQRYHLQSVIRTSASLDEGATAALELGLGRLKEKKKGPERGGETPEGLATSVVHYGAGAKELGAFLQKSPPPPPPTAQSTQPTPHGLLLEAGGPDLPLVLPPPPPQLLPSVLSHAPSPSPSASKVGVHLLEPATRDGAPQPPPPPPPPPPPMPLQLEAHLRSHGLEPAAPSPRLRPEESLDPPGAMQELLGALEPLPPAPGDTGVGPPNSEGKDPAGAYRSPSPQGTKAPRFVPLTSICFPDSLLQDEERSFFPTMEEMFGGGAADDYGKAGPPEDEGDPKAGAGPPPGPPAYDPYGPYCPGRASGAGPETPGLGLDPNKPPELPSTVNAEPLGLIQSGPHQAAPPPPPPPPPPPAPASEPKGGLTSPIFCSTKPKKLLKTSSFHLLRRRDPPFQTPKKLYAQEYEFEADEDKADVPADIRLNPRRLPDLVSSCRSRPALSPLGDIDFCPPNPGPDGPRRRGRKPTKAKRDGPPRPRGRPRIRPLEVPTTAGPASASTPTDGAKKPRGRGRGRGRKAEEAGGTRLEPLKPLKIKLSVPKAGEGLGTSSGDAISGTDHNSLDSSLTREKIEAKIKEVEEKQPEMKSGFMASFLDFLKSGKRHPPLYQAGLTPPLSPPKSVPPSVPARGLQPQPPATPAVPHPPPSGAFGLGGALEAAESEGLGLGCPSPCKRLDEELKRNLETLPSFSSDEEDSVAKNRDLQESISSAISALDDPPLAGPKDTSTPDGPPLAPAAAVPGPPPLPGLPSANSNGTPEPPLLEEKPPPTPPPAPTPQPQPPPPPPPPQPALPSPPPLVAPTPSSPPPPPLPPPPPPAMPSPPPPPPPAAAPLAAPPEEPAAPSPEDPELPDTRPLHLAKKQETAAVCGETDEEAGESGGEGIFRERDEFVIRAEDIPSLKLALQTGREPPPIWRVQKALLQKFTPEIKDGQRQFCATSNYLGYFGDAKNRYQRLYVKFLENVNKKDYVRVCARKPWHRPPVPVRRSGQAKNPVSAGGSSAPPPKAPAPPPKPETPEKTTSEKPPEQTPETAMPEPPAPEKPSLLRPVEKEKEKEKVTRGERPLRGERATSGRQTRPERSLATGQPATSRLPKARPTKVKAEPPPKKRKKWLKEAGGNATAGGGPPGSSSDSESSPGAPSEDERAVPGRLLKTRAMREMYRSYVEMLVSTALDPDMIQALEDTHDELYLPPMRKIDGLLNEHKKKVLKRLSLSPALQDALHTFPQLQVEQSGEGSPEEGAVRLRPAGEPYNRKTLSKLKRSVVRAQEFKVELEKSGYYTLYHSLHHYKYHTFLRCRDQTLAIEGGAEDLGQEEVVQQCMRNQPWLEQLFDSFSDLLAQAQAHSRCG
UniProt Q9UKL0: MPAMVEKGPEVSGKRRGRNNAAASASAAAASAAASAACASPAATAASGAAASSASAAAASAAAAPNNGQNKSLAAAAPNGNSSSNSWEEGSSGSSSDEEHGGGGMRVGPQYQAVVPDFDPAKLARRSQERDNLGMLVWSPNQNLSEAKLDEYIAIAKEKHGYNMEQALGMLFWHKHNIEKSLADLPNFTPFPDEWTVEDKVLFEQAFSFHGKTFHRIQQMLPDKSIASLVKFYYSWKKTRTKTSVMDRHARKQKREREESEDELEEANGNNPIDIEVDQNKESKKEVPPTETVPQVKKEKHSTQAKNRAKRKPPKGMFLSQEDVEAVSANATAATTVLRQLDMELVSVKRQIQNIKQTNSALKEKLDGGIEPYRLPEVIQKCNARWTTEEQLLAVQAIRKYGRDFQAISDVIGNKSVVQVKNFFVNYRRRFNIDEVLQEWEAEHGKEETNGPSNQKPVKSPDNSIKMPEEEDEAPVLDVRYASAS
UniProt Q9UMX0: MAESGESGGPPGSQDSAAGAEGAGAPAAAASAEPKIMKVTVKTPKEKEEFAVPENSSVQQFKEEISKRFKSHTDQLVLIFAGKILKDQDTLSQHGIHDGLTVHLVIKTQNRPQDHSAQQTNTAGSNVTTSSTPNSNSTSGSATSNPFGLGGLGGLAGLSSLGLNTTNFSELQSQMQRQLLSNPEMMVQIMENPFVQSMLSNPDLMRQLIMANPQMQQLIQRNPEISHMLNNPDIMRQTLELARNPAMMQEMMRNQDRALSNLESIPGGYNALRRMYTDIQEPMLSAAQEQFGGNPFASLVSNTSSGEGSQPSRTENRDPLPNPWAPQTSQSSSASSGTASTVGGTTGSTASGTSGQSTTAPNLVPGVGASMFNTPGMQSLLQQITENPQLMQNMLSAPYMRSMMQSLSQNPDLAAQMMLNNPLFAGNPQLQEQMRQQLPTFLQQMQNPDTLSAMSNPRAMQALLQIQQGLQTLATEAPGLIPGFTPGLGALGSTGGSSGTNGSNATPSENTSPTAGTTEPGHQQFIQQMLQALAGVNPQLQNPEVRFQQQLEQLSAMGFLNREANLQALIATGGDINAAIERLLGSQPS
UniProt Q9NRR5: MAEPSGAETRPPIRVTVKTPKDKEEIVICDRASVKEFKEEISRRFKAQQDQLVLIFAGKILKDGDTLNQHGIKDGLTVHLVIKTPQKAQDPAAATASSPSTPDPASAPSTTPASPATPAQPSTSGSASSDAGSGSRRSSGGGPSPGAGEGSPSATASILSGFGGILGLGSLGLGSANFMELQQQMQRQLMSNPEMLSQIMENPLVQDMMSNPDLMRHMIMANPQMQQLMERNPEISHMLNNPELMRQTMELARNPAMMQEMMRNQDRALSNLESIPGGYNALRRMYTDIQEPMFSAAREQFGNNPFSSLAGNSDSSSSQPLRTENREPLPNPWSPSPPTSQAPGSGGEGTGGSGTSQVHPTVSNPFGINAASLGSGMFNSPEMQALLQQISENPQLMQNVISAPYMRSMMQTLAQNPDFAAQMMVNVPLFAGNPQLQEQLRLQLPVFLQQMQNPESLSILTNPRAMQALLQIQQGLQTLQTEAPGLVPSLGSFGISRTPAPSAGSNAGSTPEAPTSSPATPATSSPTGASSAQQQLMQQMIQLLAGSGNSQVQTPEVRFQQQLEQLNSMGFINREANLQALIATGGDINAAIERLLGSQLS

Legend:
GFP-B-MYB (human) = GFP-B-MYB (human) (UniProt P10244); test: affinity purification with mass spectrometry; extracts (ELB buffer, 120 mM NaCl, 0.2% NP-40) of HEK293T cells stably expressing the GFP fusion bait bound to magnetic GFP-trap beads; on-bead trypsin digestion, LC-MS/MS; cells expressing only GFP as control; three independent experiments
GFP-ZMYM4 (human) = GFP-ZMYM4 (human) (UniProt Q5VZL5); test: as above

| Substance | binding (GFP-B-MYB (human)) | binding (GFP-ZMYM4 (human)) |
| --- | --- | --- |
| LIN54, endogenous (from UniProt Q6MZP7 1-749) | binds |  |
| PRR12, endogenous (from UniProt Q9ULL5 1-2036) |  | binds |
| RCOR1, endogenous (from UniProt Q9UKL0 1-485) |  | binds |
| UBQLIN1, endogenous (from UniProt Q9UMX0 1-589) |  | binds |
| UBQLN4, endogenous (from UniProt Q9NRR5 1-601) |  | binds |
| zinc finger MYM-type protein 4 (ZMYM4), endogenous (from UniProt Q5VZL5 1-1548) | binds |  |
